Binding data for five molecules are collected here from article doi:10.1101/2025.07.26.666928.

Assay [1] has as its target Ty:YFP:Ty:IC1 (Trypanosoma brucei) (UniProt Q385R8). In words: affinity purification with mass spectrometry.
Assay [2] deals with 3HA-BioID2-KTU (Trypanosoma brucei) (UniProt Q388W0). The assay can be described thus: proximity labelling.
Assay [3] concerns the target 3HA-BioID2-PIH1D1 (Trypanosoma brucei) (UniProt Q38DW7). The assay can be described thus: proximity labelling.
In assay [4] the target is 3HA-BioID2-PIH1D3 (Trypanosoma brucei) (UniProt Q580K1). The assay can be described thus: proximity labelling.
Assay [5] deals with 3HA-BioID2-PIH1D2 (Trypanosoma brucei). In words: proximity labelling.
The target of assay [6] is 3HA-BioID2-KTU (Trypanosoma brucei) (UniProt Q388W0). In words: proximity labelling. The source holds these as a separate data set.
In assay [7] the target is 3HA-BioID2-PIH1D1 (Trypanosoma brucei) (UniProt Q38DW7). The assay can be described thus: proximity labelling. This is another data set of the same source.

Like-named read-outs stand apart in the source and are kept apart here. Results are given in words; binding and its absence hold for the method and conditions named. In cells and extracts the contact can be indirect. A yes stands for co-enrichment or nearness to the bait. Other partners may have been found. For some of these results: No binding means not detected with the bait.

Consider “ankyrin repeat-containing protein (encoded by Tb927.4.1170) (from UniProt Q580E5)”, for which, in assay [1], the binding result was “binds”.
Still for that read-out and setting: next, “1,2-Dihydroxy-3-keto-5-methylthiopentene dioxygenase (encoded by Tb927.4.360) (from UniProt Q57UT9) (enzyme)”: “binds”.
As to ODAα (from UniProt Q57WX6), the binding entry is “no binding” in assay [2], “binds” in assay [3] and “binds” in assay [1].
In the case of ODAβ (from UniProt Q386I6), the binding result in assay [1] is given as “binds”.

B1: EIF5A (protein, UniProt Q387H6 1-166)
chain: MSDDEGQFAEGGAQVGSLTYPMQAGALKKGGYICINGRPCKVIDLSVSKTGKHGHAKVSIVALDIFTGNKMEDQAPSTHNVEVPFVKTATYSVLDIQEDREDPSKPAHLSLMDDEGETRDNLDMPPNAELAGQIKEQFDAGKDVLVVVVSAMGIDQILSFKNAAER
As for B1, the binding entry in assay [4], in assay [5], in assay [6] and in assay [7] was “binds” each time.
